In PubChem BioAssay AID504444 (National Center for Advancing Translational Sciences (NCATS), 2011):
Hit rate of the full screen: of about 360,000 compounds, about 7,500 (2.1%) were called active. The inconclusive results got no clear call from the source; some entries with a clear call stand among them for comparison. Calls follow the shape of the dose curve; as a rule, active = well fitted inhibition curve with a large enough effect; inconclusive = small, poorly fitted or top-dose-only effect, or effect the other way; inactive = flat fitted curve, though single readings scatter. Potencies beside an inconclusive call are fits to weak or partial responses and may not hold up.
% is scaled to controls: 0 for no effect and ±100 for the full control effect; potency is read from the fitted curve at half-maximal effect.

Assay: Nrf2 qHTS screen for inhibitors; also: nearly all actives have a fitted effect of over 60% in size
Details: A549 ARE-Fluc reporter, luciferase luminescence, 18-24 h; activity change, negative = inhibition: at 46 µM (top of the series)
How it was run: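 A549 ARE_Fluc cells (5000/well, 5% FBS OPTI-MEM) pre-incubated 2 h, then treated with compounds 18-24 h at 37C/5% CO2 in concentration-response. CellTiter-Fluor viability read first; BugLite luciferase luminescence after 15 min at room temperature gives Nrf2 activity.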
With `NC(=O)CC(NC(=O)c1ccc(Br)cc1)c1ccc(N2CCCCCC2)c([N+](=O)[O-])c1` (stereo not drawn) the Potency was inconclusive: 23.1 µM [falling, single point]. With `Cc1ccc(NC(=O)Cn2c(=O)c3ccccc3n3nncc23)cc1` the “activity change, negative = inhibition” value was inactive: -1.18%. In the case of `COc1cc2nc(CN3CCN(S(=O)(=O)c4c(F)cccc4F)CC3)[nH]c(=O)c2cc1OC`, the “activity change, negative = inhibition” value is reported as inactive: -7.24%. For `CCN1CCN(c2ccc(NC(=O)c3ccc4c(c3)[nH]c(=O)n4Cc3ccc(OC)cc3)cc2)CC1`, the Potency was inconclusive: 7.31 µM [activator, partial curve, poor fit]. For `COc1ccc(N2CCN(c3nc(=S)n(-c4ccccc4)c(C)c3C(C)=O)CC2)cc1`, the “activity change, negative = inhibition” value was inactive: 5.2%. For `CCOc1ncccc1C(=O)OCC(=O)c1cc(C)n(Cc2ccco2)c1C`, the Potency was inconclusive: 0.82 µM [activator, full curve]. For `CC(C)OC(=O)/C(=C/c1ccc(Br)cc1)NC(=O)c1ccco1`, the Potency was inconclusive: 16.4 µM [falling, partial curve]. In the case of `COCCC(=O)N1CCC(Oc2ccc(C(=O)NCc3cc(C)n(C)n3)cc2)CC1`, the “activity change, negative = inhibition” value is reported as inactive: 6.51%. In the case of `Cc1ccc(C(=O)N/C(=C\c2cn(S(=O)(=O)N(C)C)c3ccccc23)C(=O)NCCN2CCOCC2)cc1`, the Potency is reported as inconclusive: 0.731 µM [falling, full curve, poor fit]. In the case of `Cc1c(C(=O)N2c3ccccc3CC2C)oc2ccccc12` (stereo not drawn), the Potency is reported as inconclusive: 10.3 µM [activator, partial curve]. For `COc1ccc2nc(Nc3nc4cc5c(cc4s3)OCCO5)sc2c1`, the Potency was inconclusive: 18.4 µM [activator, single point]. For `Clc1ccccc1N/N=C/c1ccc2c(c1)OCO2`, the Potency was inconclusive: 13 µM [activator, partial curve]. In the case of `Cc1ccccc1CN1C(=O)[C@@H]2Cc3c([nH]c4ccccc34)C(C)(C)N2C1=O`, the Potency is reported as inconclusive: 25.9 µM [falling, single point]. In the case of `CC(C)C(C)NC(=O)COc1ccc(Sc2ccc(OCC(=O)NC(C)C(C)C)cc2)cc1` (stereo not drawn), the Potency is reported as active: 20.6 µM. For `Cc1ccc(-n2nc3c([n+]2[O-])CCc2nonc2-3)cc1`, the Potency was inconclusive: 8.2 µM [activator, partial curve]. For `Cc1cccc(NC(=O)CN2C(=O)C(C)Oc3ccccc32)n1` (stereo not drawn), the Potency was inconclusive: 16.4 µM [activator, partial curve, poor fit]. For `CC(C)(CO)NC(=O)CC1C(=O)NCCN1Cc1ccc(-c2ccccc2)cc1` (stereo not drawn), the Potency was inconclusive: 3.66 µM [activator, full curve, poor fit]. For `c1ccc(CNc2ccc(N3CCOCC3)cc2)cc1`, the Potency was inconclusive: 2.31 µM [activator, full curve]. With `Cc1nn(-c2ccc(N3CCCCC3)nn2)c(C)c1CCC(=O)NCc1ccc(OC(C)C)cc1` the “activity change, negative = inhibition” value was inactive: -7.99%. For `CC(C)CCNC(=O)CCS(=O)(=O)c1cccc2nonc12`, the Potency was inconclusive: 20.6 µM [activator, partial curve, poor fit]. For `CC(C)(C)c1nc(NCC2CCCO2)c2nnn(Cc3ccccc3)c2n1` (stereo not drawn), the Potency was inconclusive: 0.184 µM [falling, full curve, poor fit]. With `CCOC(=O)CNS(=O)(=O)c1ccc(F)cc1Br` the “activity change, negative = inhibition” value was inactive: 15%. In the case of `Cc1cc(NCCOCCO)n2ncc(-c3ccc(Cl)cc3)c2n1`, the Potency is reported as inconclusive: 32.6 µM [falling, single point]. With `Cc1ccc(NC(=O)Cn2cc(S(=O)(=O)N3CCCC3)c(S(=O)(=O)N3CCCC3)c2)cc1F` the “activity change, negative = inhibition” value was inactive: -29.7%. For `Cc1nc(-c2ccccc2)c(Cc2ccccc2O)c(=O)[nH]1`, the Potency was inconclusive: 11.6 µM [falling, partial curve, poor fit]. In the case of `CN(C)c1nc(C=C(C#N)C#N)c(Cl)n1-c1ccc(F)cc1`, the “activity change, negative = inhibition” value is reported as inactive: -139%. For `CN(CCC1CCCCO1)C(=O)c1cc(COc2ccc(F)cc2F)on1` (stereo not drawn), the Potency was inconclusive: 29.1 µM [falling, single point]. With `CN(C)Cc1c(C(=O)N/N=C/c2cccc(OCc3ccccc3)c2)nnn1-c1nonc1N` the Potency was inconclusive: 9.2 µM [falling, partial curve]. With `CCOc1cc(CNc2ccc(C(=O)O)cc2)ccc1OCc1ccccc1` the Potency was inconclusive: 5.8 µM [falling, full curve]. For `COc1ccc(NC(=O)CN(C)CC(=O)NC(=O)NC2CCCCC2)cc1`, the “activity change, negative = inhibition” value was inactive: -2.74%. For `NC(=S)Nc1cnc2ccccc2c1`, the Potency was inconclusive: 20.6 µM [activator, single point]. In the case of `COc1ccc(-n2nc([N+](=O)[O-])c(=NCCc3ccc(Cl)cc3)n2O)cc1`, the “activity change, negative = inhibition” value is reported as inactive: 7.49%. For `Cc1ccccc1-n1nnnc1SC(C)C(=O)NC1CCCc2ccccc21` (stereo not drawn), the Potency was inconclusive: 25.9 µM [falling, partial curve, poor fit]. With `O=CNc1c(Br)cc2c(c1Br)Cc1cc(Br)ccc1-2` the Potency was inconclusive: 0.103 µM [activator, full curve, poor fit]. For `O=C(CCNS(=O)(=O)c1cccs1)N1CCN(c2cccc(C(F)(F)F)c2)CC1`, the Potency was inconclusive: 25.9 µM [falling, partial curve, poor fit]. For `Cc1ccc(N(C)S(=O)(=O)c2cc(-c3cnc(C4CC4)o3)ccc2C)cc1`, the Potency was inconclusive: 25.9 µM [falling, partial curve, poor fit]. In the case of `O=C(Nc1cccc(NC(=O)c2ccc(Cl)cc2)n1)c1ccc(Cl)cc1`, the Potency is reported as inconclusive: 29.1 µM [activator, single point]. With `CC1CCC(Nc2ncnc3onc(-c4ccc(F)cc4)c23)CC1` (stereo not drawn) the Potency was inconclusive: 2.31 µM [activator, partial curve]. With `Cn1cnc(C(=O)NCc2ccccc2)c1C(=O)NCc1ccccc1` the “activity change, negative = inhibition” value was inactive: -11.5%. In the case of `O=C(O)c1c(-c2ccccc2)oc2ccc(OCc3ccc(Cl)c(Cl)c3)cc12`, the Potency is reported as inconclusive: 32.6 µM [falling, partial curve, poor fit]. In the case of `Cc1ccc(S(=O)(=O)N2CCOCC2)cc1C(=O)N1CCN(c2ccc(C(F)(F)F)cn2)CC1`, the Potency is reported as active: 25.9 µM. For `Cc1[nH]c2ccccc2c1C(=O)COC(=O)C1CC(O)CN1S(=O)(=O)c1ccc(Cl)cc1` (stereo not drawn), the “activity change, negative = inhibition” value was inactive: -6.62%. For `CCOc1ccc(OCc2cccc(C(=O)N/N=C/c3cccnc3)c2)cc1`, the Potency was inconclusive: 2.06 µM [activator, partial curve, poor fit].
